# Assay results: article PMC12022293
# By UniProt entry, the sequences of proteins in these tests, tags left out.
# UniProt Q5VVQ6: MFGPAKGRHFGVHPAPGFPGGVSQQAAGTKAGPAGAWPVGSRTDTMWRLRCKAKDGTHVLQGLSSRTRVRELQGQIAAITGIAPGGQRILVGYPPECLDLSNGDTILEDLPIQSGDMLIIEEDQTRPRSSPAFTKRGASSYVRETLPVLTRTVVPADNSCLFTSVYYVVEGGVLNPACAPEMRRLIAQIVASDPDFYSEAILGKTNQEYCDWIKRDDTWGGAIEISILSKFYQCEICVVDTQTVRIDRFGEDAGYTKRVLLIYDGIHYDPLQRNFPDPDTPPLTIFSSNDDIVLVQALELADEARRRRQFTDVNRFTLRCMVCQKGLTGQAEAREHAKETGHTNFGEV
# UniProt P17028: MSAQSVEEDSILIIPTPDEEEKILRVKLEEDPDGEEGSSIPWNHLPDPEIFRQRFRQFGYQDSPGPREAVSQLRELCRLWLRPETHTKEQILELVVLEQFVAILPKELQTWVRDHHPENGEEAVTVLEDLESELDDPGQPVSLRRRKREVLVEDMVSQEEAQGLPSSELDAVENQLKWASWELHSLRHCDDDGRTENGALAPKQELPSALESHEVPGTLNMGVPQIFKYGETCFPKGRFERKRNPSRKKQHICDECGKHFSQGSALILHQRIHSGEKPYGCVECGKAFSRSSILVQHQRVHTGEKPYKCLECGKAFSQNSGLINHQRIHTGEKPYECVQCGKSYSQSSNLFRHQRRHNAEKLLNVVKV
# These are yes or no findings as the source states them, for the method shown. In cells and extracts the contact can be indirect. Some binding calls cover weakened binding; strength is not graded here.
# Columns and labels:
# [1] = target: YOD1, endogenous (cell line not named, Fig. 3E, F) (human) (UniProt Q5VVQ6); assay: co-IP; endogenous proteins; cell lysate with anti-YOD1 or anti-ZNF24 antibody on Protein A/G magnetic beads, 4 °C overnight, PBST washes, Western blot
# [2] = target: full-length Flag-YOD1 (human) (UniProt Q5VVQ6); assay: co-IP; one tagged protein or truncation overexpressed alone in HEK-293T, endogenous partner; immunoprecipitation with antibodies against the endogenous protein (ZNF24, YOD1) or against the tag (Flag, Myc)
# [3] = target: full-length Flag-YOD1 (human) (UniProt Q5VVQ6); assay: co-IP; Flag- and Myc-tagged proteins cotransfected (HEK-293T); lysates immunoprecipitated with anti-Flag or anti-Myc antibodies, Western blot
substance,measurement,setting,value
"ZNF24, endogenous (cell line not named, Fig. 3E, F) (from UniProt P17028 1-368)",binding,[1],binds
"ZNF24, endogenous in HEK-293T cells (from UniProt P17028 1-368)",binding,[2],binds
full-length Myc-ZNF24 (from UniProt P17028 1-368),binding,[3],binds
